PubChem BioAssay AID686938 | Drosophila RNAi Screening Center | 2013

Assay: 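Fly genes required for calcium entry once internal stores are emptied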 (primary screen)
System: Drosophila S2R+ cells
Reagent: long dsRNA against Drosophila genes, about 0.25 µg dsRNA per well, roughly 10,000 cells
Duration: 5 days of knock-down before the calcium assay
Treatment: thapsigargin (SERCA pump blocker) to empty calcium stores; entry signal taken 4 min after adding it
Detection: 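Duplicate raw fluo-4 intensities per well from a plate reader, at rest and four minutes after thapsigargin emptied calcium stores; entry-to-rest ratio filled for only some wells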
Direction: calcium entry signal: higher = stronger calcium signal after store depletion; resting calcium signal: higher = higher resting calcium signal
Hit rule: 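Called when the plate z-score of the entry-to-rest ratio, mean of duplicates, falls below −3; wells with low overall dye signal (Fmax z below −2) or more than five off-targets excluded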
Meaning of the calls: active = strongly reduced calcium entry; inactive = no strong reduction
The deposit covers about 23,000 reagents; below is an unselected part of those with a known target gene and a result. In the full data, 75 (0.33%) are marked active. 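Raw plate signals without normalisation; calls rest on plate z-scores that were not deposited; ratio present for only 364 wells.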 Unmarked entries are inactive. Reagents against one gene are numbered here. Names joined by + are all predicted targets of the reagent. Not given: the dose of the treatment.

What did the screen give for CG17486?
calcium entry signal, replicate 1 (fluorescence units): 4.06e7; calcium entry signal, replicate 2 (fluorescence units): 3.49e7; resting calcium signal, replicate 1 (fluorescence units): 1.76e7; resting calcium signal, replicate 2 (fluorescence units): 1.72e7

With CG14174, what was measured?
calcium entry signal, replicate 1 (fluorescence units): 2.83e7; calcium entry signal, replicate 2 (fluorescence units): 4.33e7; resting calcium signal, replicate 1 (fluorescence units): 1.59e7; resting calcium signal, replicate 2 (fluorescence units): 2.07e7

For Rh50, what was measured?
calcium entry signal, replicate 1 (fluorescence units): 4.59e7; calcium entry signal, replicate 2 (fluorescence units): 3.87e7; resting calcium signal, replicate 1 (fluorescence units): 2.99e7; resting calcium signal, replicate 2 (fluorescence units): 1.67e7

With insv (insensitive), what does the deposit list?
calcium entry signal, replicate 1 (fluorescence units): 4.22e7; calcium entry signal, replicate 2 (fluorescence units): 5.34e7; resting calcium signal, replicate 1 (fluorescence units): 1.93e7; resting calcium signal, replicate 2 (fluorescence units): 2.30e7

What is on record for CG33937 (retired record)?
calcium entry signal, replicate 1 (fluorescence units): 2.25e7; calcium entry signal, replicate 2 (fluorescence units): 1.84e7; resting calcium signal, replicate 1 (fluorescence units): 1.13e7; resting calcium signal, replicate 2 (fluorescence units): 9.97e6

For CG2006 + Spase12, how do the results read?
calcium entry signal, replicate 1 (fluorescence units): 3.22e7; calcium entry signal, replicate 2 (fluorescence units): 4.05e7; resting calcium signal, replicate 1 (fluorescence units): 1.66e7; resting calcium signal, replicate 2 (fluorescence units): 1.75e7

For CG7907, what was measured?
calcium entry signal, replicate 1 (fluorescence units): 3.70e7; calcium entry signal, replicate 2 (fluorescence units): 3.68e7; resting calcium signal, replicate 1 (fluorescence units): 4.89e7; resting calcium signal, replicate 2 (fluorescence units): 1.74e7

How did the screen score GstE7 (Glutathione S transferase E7)?
calcium entry signal, replicate 1 (fluorescence units): 4.06e7; calcium entry signal, replicate 2 (fluorescence units): 3.45e7; resting calcium signal, replicate 1 (fluorescence units): 1.85e7; resting calcium signal, replicate 2 (fluorescence units): 1.76e7

Which result is listed for CG11164?
calcium entry signal, replicate 1 (fluorescence units): 4.79e7; calcium entry signal, replicate 2 (fluorescence units): 3.82e7; resting calcium signal, replicate 1 (fluorescence units): 2.36e7; resting calcium signal, replicate 2 (fluorescence units): 1.84e7

Which result is listed for IntS9 (Integrator 9)?
calcium entry signal, replicate 1 (fluorescence units): 3.45e7; calcium entry signal, replicate 2 (fluorescence units): 3.98e7; resting calcium signal, replicate 1 (fluorescence units): 1.77e7; resting calcium signal, replicate 2 (fluorescence units): 2.94e7

With CG31224 #1, what does the deposit list?
calcium entry signal, replicate 1 (fluorescence units): 4.91e7; calcium entry signal, replicate 2 (fluorescence units): 2.52e7; resting calcium signal, replicate 1 (fluorescence units): 2.21e7; resting calcium signal, replicate 2 (fluorescence units): 1.31e7

For CG31224 #2, what was measured?
calcium entry signal, replicate 1 (fluorescence units): 4.67e7; calcium entry signal, replicate 2 (fluorescence units): 4.19e7; resting calcium signal, replicate 1 (fluorescence units): 2.06e7; resting calcium signal, replicate 2 (fluorescence units): 1.66e7

For CG13545, what does the deposit list?
calcium entry signal, replicate 1 (fluorescence units): 3.56e7; calcium entry signal, replicate 2 (fluorescence units): 4.35e7; resting calcium signal, replicate 1 (fluorescence units): 1.81e7; resting calcium signal, replicate 2 (fluorescence units): 2.04e7

How did the screen score CG42382?
calcium entry signal, replicate 1 (fluorescence units): 3.64e7; calcium entry signal, replicate 2 (fluorescence units): 4.86e7; resting calcium signal, replicate 1 (fluorescence units): 1.74e7; resting calcium signal, replicate 2 (fluorescence units): 2.17e7

In a second layout: entries from further up.
{"gene": "CG7907", "reagent no.": 1, "calcium entry signal, replicate 1 (fluorescence units)": 3.70e7, "calcium entry signal, replicate 2 (fluorescence units)": 3.68e7, "resting calcium signal, replicate 1 (fluorescence units)": 4.89e7, "resting calcium signal, replicate 2 (fluorescence units)": 1.74e7}
{"gene": "GstE7 (Glutathione S transferase E7)", "reagent no.": 1, "calcium entry signal, replicate 1 (fluorescence units)": 4.06e7, "calcium entry signal, replicate 2 (fluorescence units)": 3.45e7, "resting calcium signal, replicate 1 (fluorescence units)": 1.85e7, "resting calcium signal, replicate 2 (fluorescence units)": 1.76e7}
